From patent publication US11168052B2, “Carbamate derivative compounds, processes for preparing them and their uses” (BIO-PHARM SOLUTIONS CO., LTD., priority 2016, dated 2021)

Key:
[1] = test system: PTZ (Pentylenetetrazol)-induced clonic seizure in mice; test: Anti-epilepsy activity, scPTZ test in mouse; format: in vivo, ICR mice
Text: (§1) In this experiment, each test compound sample was formulated as described in Biological Experimental Example 1, and administered intraperitoneally to the test animals (mice; ICR or Rat; SD); Experimental animals, male ICR mice and male SD rats, were purchased from OrientBio or Nara biotech, Korea, and housed 4-5 mice per a cage for 4-5 days. The range of mice body weight was used between 19 and 26 grams and range of rats body weight was used between 100 and 130 grams. After Peak time (0.5, 1, 2 and 4 hr) from the administration, PTZ (Pentylenetetrazol) was administered subcutaneously in the concentration capable of inducing 97% intermittent convulsions (mice: 100-110 mg/kg?bw, 10 μl/g, or rats: 90-110 mg/kg?bw, 2 μl/g). If clonic seizure was not observed for at least 30 minutes in the PTZ administered animal, it can be considered that the test compound has anti-epilepsy activity. The median effective dose (ED50) is determined using 6 animals per a concentration (total three different concentrations), and calculated by Litchfield and Wicoxon log-probit method which is a dose-response relationship.

[2] = test system: CFA-induced pain model in rats; test: Antiallodynic activity on Complete Freund's Adjuvant (CFA)-induced inflammatory pain model; format: in vivo, Sprague-Dawley rats; conditions: intraperitoneally
Procedure: Male, Sprague-Dawley rats (210-250 g, Nara Bio, Korea) were habituated for 1 week before surgery and allowed free access to food and water throughout the experimentation. Room temperature and humidity were maintained at 24±2 and 50±10%, respectively.
CFA-induced inflammatory pain was induced by the procedure of Nagakura et al. (2003) and Gregory P. et al. (2010) with minor modifications. CFA (sigma, USA) was injected in the right plantar with a 100 ul volume under gaseous anesthesia with isoflurane. Sham controls were injected with 100 ul of saline, and preparation of the vehicle controls were identical to the group treated with compound, except for administration of vehicles without indentical to the vihecle control group.
Tactile sensitivity (Mechanical allodynia) was evaluated using von Frey monofilaments before and after treatment, and animals were include in the study only if the withdrawal threshold value was less than 4 g. One week after CFA injection, CFA-infused animals, sham-operated animal, and vehicle-operated animals were tested for tactile sensitivity with von Frey monofilaments, with 3 trials for each animal. All Animals were placed in a stainless steel mashe chamber and habituated for 30 min in the test cage. The tactile sensitivity for ipsilateral hind paw was measured using the up-and-down method (Dixon, 1980) with seven von Frey monofilaments (0.4, 1, 2, 4, 6, 8, and 15 g) to 3 trials. The tactile sensitivity test was followed by Dixon's method (Dixon, 1980). The 50% paw withdrawal threshold for each paw was calculated using the following formula: [Xth]log=[vFr]log+ky where [vFr] is the force of the last von Frey used, k=0.2249 which is the average interval (in log units) between the von Frey monofilaments, and y is a value that depends upon the pattern of withdrawal responses (Dixon, 1980).
Antiallodynic effect of compounds was evaluated at the dose of 50 mg/kg (n=4-6), intraperitoneally administrated in a volume of 5 ul/g bw in a vehicle of 30% (v/v) PEG or 20% (v/v) Tween 80. The test was performed peak time of efficacy (0.5 hr) after compound administration.
The relative values compared to the sham (% control) were calculated and shown in Table 5, which show an antiallodynic effect of Compound 1 on CFA-induced pain model in rats.

[3] = test system: MES (electroshock) seizure in rats; test: Anti-epilepsy activity, MES test in rats; format: in vivo, SD rats
Procedure: (§2) In the MES test (Ref., G. Villetti et al. Neuropharmacology 40(2001) 866-878), an electrical stimulus (mice: 50 mA, 60 Hz, 0.2 sec, and rats: 150 mA, 60 Hz, 0.2 sec in the test animal) supplied by an 11A Shocker (IITC Life Science Company) was delivered through corneal electrodes. All mice or rats assigned to any electroshock at peak time were treated with each test compound sample which was dissolved in 20% tween 80 prepared by saline solvent applied orally before the test. […] Three doses of the test sample were administered orally to 9-18 animals (3-6 mice per dose) for evaluating the respective doses at which 50% of the animals were protected from seizure (ED50). The ED50 value (median effective dose) was calculated by Litchfield and Wicoxon log-probit method which is a dose-response relationship. Experimental animals, male ICR mice and male SD rats, were purchased from OrientBio, Samtako, or Nara Biotech, Korea, and housed in cages (4-5 mice or 3 rats per cage) for 4-5 days. The range of mice body weight was between 19 and 25 grams and range of rats body weight was between 100 and 130 grams.

[4] = test system: MES (electroshock) seizure in mice; test: Anti-epilepsy activity, MES test in mouse; format: in vivo, ICR mice
Procedure: as §2

[5] = test system: PTZ (Pentylenetetrazol)-induced clonic seizure in rats; test: Anti-epilepsy activity, scPTZ test in rats; format: in vivo, SD rats
Text: as §1

[6] = test system: acetic acid-induced writhes in ICR mice; test: Writhing test (acetic acid); format: in vivo; conditions: po
Procedure: To examine the pain relief effect of the carbamate compounds, a writhing test was conducted, referring to Fischer, L. G. et al. (2008).
ICR mice (male, 24-28g; Orient Bio, Korea) were habituated before test (in test room) for 1 hour. Animals were fasted 2 hr before administration of compounds. Each of compounds was orally administered at the three dose, 10 ul/g, bw (n=3-5/group). All compounds were dissolved in a vehicle of 30% (v/v) PEG 400 or 20% (v/v) Tween 80. The control group was treated the vehicle without compounds.
0.2-2 hour after the administration of compounds, 0.6% acetic acid at the dose of 10 ul/g by bodyweight was injected into the mice Animals were habituated in the cage for 5 min. 5 min after habituation, the number of writhes (abdominal constriction) was counted for 15 min, referring to Korzeniewska-Rybicka, I. et al. (1998) and compared with that of a control.
The relative values compared to the control (% control) were calculated and shown in […]

[7] = test system: Lithium-pilocarpine induced seizure in rats; test: Lithium-pilocarpine induced epilepsy test (LI-PILO), prevention test; format: in vivo, Sprague-Dawley rats; conditions: i.p.
Procedure: Male Sprague-Dawley rats (purchased from Orient Bio Inc. Korea) of body weight 175 grams were used for these studies and 3 rats per cage were housed for 4-5 days. On the day prior to SE, rats received 127 mg/kg lithium chloride (Sigma, St. Louis, Mo., U.S.A.) intraperitoneally (i.p.). Approximately 18-20 h following this treatment, rats were given an i.p. injection of the concentration capable of inducing 97% intermittent convulsions pilocarpine(Sigma, 30-43 mg/kg). An i.p. injection of 2 mg/kg methyl-scopolamine (Sigma) was administered 30 min prior to pilocarpine to block the effects of the muscarinic agonist on peripheral cholinergic receptors. Test drugs were dissolved in 20% tween80 (Sigma).
The drugs were administered intraperitoneally (i.p.) in a volume of 2 μl/g body weight. Pharmacological effects of all of the test materials were evaluated to compare test groups (n=6) with a control group (n=6). Control group was administered vehicle only. The efficacy was measured 0.5, 1, 2, or 4 hours after the administration of the test material. The time point that the most animals were protected was defined as peak time and the ED50 was determined at peak time. The animals were then transferred to observation cages and observed continuously for 90 min Seizure was elicited in approximately 95% of the control group. Protection was defined as complete absence of seizure grade 3-5 (Racine scale; Racine, 1972) over the 90-min observation period. The effective dose of the compound necessary to protect 50% of the animals against seizures compared to controls (i.e., ED50) was determined by a curve fitting program (Excel 2007, Microsoft).

| Compound | PTZ test (ip) Peak time [1] [h] | CFA model Peak Time [2] [h] | MES test (po) Peak time [3] [h] | MES test (po) Peak time [4] [h] | scPTZ test (ip) peak time [5] [h] | Writhing test Peak Time [6] [h] | Lithium pilocarpine model (pre) peak time [7] [h] |
| --- | --- | --- | --- | --- | --- | --- | --- |
| 8-chloro-1-hydroxy-1,2,3,4-tetrahydronaphthalen-2-yl carbamate (mixture of SR & RS) [Example 3] | 0.5 | 0.5 | 1 | 1 |  |  |  |
| NC(=O)O[C@H]1CCc2cccc(Cl)c2[C@@H]1O [Example 5, (1S, 2S)-8-chloro-1-hydroxy-1,2,3,4-tetrahydronaphthalen-2-yl carbamate] | 2 | 0.5 |  | 2 |  |  |  |
| NC(=O)O[C@@H]1CCc2cccc(F)c2[C@@H]1O [Example 10, (1S, 2R)-8-fluoro-1-hydroxy-1,2,3,4-tetrahydronaphthalen-2-yl carbamate] |  | 0.5 | 4 | 1 |  |  |  |
| NC(=O)O[C@H]1c2c(Cl)cccc2CC[C@H]1O [Example 18, (1S, 2R)-8-chloro-2-hydroxy-1,2,3,4-tetrahydronaphthalen-1-yl carbamate] |  | 0.5 | 1 | 1 | 0.5 | 0.5 |  |
| NC(=O)O[C@@H]1c2cc(Cl)ccc2CC[C@@H]1O [Example 22, (1R, 2S)-7-chloro-2-hydroxy-1,2,3,4-tetrahydronaphthalen-1-yl carbamate] |  | 0.5 |  | 2 |  |  |  |
| NC(=O)O[C@H]1c2c(F)cccc2CC[C@H]1O [Example 25, (1S, 2R)-8-fluoro-2-hydroxy-1,2,3,4-tetrahydronaphthalen-1-yl carbamate] |  |  | 1 | 1 |  |  | 1 |
| NC(=O)O[C@H]1CCc2cccc(Cl)c2[C@H]1OC(N)=O [Example 30, (1R, 2S)-8-chloro-1,2,3,4-tetrahydronaphthalen-1,2-diyl dicarbamate] |  | 0.5 |  | 4 |  |  |  |
| NC(=O)O[C@@H]1CCc2cccc(I)c2[C@@H]1OC(N)=O [Example 36, (1S, 2R)-8-iodo-1,2,3,4-tetrahydronaphthalen-1,2-diyl dicarbamate] |  | 0.5 |  | 2 |  |  |  |
| COCO[C@H]1c2c(Cl)cccc2CC[C@H]1OC(N)=O [Example 40, (1S, 2R)-8-chloro-1-(methoxymethoxy)-1,2,3,4-tetrahydronaphthalen-2-yl carbamate] |  |  |  |  |  |  | 0.5 |
| NC(=O)O[C@@H]1Cc2cccc(Cl)c2[C@@H]1O [Example 51, (1S, 2R)-7-chloro-1-hydroxy-2,3-dihydro-1H-inden-2-yl carbamate] |  | 0.5 | 4 | 0.5 | 1 |  |  |
| NC(=O)O[C@H]1Cc2cccc(Cl)c2[C@@H]1O [Example 54, (1S, 2S)-7-chloro-1-hydroxy-2,3-dihydro-1H-inden-2-yl carbamate] |  |  | 2 | 0.5 |  |  | 0.5 |
| NC(=O)O[C@@H]1Cc2cccc(F)c2[C@@H]1O [Example 55, (1S, 2R)-7-fluoro-1-hydroxy-2,3-dihydro-1H-inden-2-yl carbamate] |  | 0.5 |  | 2 |  |  | 1 |
| NC(=O)O[C@H]1Cc2cccc(F)c2[C@H]1O [Example 56, (1R, 2S)-7-fluoro-1-hydroxy-2,3-dihydro-1H-inden-2-yl carbamate] |  | 0.5 |  | 0.5 |  |  |  |
| NC(=O)O[C@H]1c2cccc(Cl)c2C[C@H]1O [Example 62, (1S, 2R)-4-chloro-2-hydroxy-2,3-dihydro-1H-inden-1-yl carbamate] |  |  | 1 | 1 |  |  |  |
| NC(=O)O[C@H]1c2c(Cl)cccc2C[C@H]1O [Example 63, (1S, 2R)-7-chloro-2-hydroxy-2,3-dihydro-1H-inden-1-yl carbamate] |  | 0.5 | 0.5 | 0.5 | 0.5 |  |  |
| NC(=O)O[C@@H]1c2c(Cl)cccc2C[C@@H]1O [Example 64, (1R, 2S)-7-chloro-2-hydroxy-2,3-dihydro-1H-inden-1-yl carbamate] |  | 0.5 | 1 | 2 | 0.5 |  | 1 |
| NC(=O)O[C@@H]1Cc2c(Cl)cccc2[C@@H]1O [Example 68, (1S, 2R)-4-chloro-1-hydroxy-2,3-dihydro-1H-inden-2-yl carbamate] |  |  | 1 | 1 |  |  |  |
| NC(=O)O[C@H]1Cc2cccc(Cl)c2[C@H]1OC(N)=O [Example 78, (1R, 2S)-7-chloro-2,3-dihydro-1H-inden-1,2-diyl dicarbamate] |  | 0.5 |  | 4 |  |  |  |
